From the supplement of paper PMC10849652
The other results are listed elsewhere or left out.

Sequences of proteins named here, by UniProt entry; tags and fusion partners are left off. A change or cut given only in a name is not applied to a line headed by its entry.
UniProt P21953: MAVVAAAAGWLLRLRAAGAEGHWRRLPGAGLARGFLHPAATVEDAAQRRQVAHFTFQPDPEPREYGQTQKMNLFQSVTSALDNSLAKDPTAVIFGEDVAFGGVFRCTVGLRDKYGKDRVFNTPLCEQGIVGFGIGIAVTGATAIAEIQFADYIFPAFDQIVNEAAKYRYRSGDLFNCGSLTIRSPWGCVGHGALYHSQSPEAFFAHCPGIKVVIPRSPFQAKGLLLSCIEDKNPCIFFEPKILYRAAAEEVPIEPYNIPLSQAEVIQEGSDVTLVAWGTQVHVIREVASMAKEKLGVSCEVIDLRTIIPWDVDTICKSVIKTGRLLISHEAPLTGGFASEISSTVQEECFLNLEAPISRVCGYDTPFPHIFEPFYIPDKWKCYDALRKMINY
UniProt Q6QNY1: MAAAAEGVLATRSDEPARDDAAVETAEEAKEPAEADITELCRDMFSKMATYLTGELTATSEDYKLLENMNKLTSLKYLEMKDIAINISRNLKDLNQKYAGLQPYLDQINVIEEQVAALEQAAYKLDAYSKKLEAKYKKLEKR
UniProt Q9UHQ4: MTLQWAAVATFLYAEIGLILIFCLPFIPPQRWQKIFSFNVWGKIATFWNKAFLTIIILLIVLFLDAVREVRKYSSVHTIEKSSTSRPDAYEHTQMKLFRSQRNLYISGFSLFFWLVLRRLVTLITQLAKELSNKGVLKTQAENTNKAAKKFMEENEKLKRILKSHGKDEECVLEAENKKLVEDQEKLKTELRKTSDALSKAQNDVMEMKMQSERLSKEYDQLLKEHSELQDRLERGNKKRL
UniProt O15382: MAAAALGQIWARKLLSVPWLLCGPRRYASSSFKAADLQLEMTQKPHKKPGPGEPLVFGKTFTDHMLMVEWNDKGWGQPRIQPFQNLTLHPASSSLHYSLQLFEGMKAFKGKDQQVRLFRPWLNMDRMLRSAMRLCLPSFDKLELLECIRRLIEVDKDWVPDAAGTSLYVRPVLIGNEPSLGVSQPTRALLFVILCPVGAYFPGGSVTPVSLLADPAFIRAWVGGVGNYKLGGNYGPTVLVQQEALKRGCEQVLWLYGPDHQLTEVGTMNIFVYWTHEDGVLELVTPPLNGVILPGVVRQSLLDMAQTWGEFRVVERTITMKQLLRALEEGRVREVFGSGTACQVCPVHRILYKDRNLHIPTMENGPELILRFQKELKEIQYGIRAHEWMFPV
UniProt O14867: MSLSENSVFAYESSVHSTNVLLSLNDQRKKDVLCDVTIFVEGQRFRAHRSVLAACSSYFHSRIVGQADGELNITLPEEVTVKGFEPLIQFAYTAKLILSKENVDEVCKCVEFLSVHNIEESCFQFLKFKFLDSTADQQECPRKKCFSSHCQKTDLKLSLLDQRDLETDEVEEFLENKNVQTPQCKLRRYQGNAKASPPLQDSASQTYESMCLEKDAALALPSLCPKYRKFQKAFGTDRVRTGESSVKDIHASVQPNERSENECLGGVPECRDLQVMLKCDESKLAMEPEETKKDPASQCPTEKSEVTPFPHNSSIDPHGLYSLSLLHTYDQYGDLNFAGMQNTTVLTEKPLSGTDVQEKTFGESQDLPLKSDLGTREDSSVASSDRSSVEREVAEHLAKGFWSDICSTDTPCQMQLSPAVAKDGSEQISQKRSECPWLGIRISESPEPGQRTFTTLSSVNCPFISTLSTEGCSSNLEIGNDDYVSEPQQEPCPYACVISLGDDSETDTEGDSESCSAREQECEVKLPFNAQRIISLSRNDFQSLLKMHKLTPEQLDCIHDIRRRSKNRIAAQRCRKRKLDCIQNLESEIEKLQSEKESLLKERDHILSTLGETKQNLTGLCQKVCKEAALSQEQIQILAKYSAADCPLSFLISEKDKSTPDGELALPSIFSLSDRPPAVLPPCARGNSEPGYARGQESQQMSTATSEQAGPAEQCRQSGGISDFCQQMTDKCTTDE
UniProt O75934: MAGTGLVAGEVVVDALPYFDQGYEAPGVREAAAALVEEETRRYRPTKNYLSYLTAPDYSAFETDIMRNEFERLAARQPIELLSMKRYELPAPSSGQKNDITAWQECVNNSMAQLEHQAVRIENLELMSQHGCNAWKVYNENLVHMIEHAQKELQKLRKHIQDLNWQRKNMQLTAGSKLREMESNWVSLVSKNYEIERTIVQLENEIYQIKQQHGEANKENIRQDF
UniProt Q7Z7M8: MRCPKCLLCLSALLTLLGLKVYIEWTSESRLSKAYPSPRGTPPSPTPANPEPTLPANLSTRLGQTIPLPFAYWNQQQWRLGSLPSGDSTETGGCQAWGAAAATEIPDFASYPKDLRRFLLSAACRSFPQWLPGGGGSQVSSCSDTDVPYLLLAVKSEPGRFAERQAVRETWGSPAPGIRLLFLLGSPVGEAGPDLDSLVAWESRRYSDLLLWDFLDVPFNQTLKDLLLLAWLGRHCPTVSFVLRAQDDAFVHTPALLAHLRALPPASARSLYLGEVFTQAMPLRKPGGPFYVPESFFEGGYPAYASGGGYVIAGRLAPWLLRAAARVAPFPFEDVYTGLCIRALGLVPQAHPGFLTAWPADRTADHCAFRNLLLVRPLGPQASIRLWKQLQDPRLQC
UniProt Q07817, whole entry, looked up: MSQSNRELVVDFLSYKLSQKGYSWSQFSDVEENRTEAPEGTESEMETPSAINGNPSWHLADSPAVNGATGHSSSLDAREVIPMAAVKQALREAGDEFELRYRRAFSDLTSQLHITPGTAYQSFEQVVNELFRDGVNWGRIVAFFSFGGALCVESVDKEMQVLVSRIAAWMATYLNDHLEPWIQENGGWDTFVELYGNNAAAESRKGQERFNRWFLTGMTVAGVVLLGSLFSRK
UniProt Q9H0E9, whole entry, looked up: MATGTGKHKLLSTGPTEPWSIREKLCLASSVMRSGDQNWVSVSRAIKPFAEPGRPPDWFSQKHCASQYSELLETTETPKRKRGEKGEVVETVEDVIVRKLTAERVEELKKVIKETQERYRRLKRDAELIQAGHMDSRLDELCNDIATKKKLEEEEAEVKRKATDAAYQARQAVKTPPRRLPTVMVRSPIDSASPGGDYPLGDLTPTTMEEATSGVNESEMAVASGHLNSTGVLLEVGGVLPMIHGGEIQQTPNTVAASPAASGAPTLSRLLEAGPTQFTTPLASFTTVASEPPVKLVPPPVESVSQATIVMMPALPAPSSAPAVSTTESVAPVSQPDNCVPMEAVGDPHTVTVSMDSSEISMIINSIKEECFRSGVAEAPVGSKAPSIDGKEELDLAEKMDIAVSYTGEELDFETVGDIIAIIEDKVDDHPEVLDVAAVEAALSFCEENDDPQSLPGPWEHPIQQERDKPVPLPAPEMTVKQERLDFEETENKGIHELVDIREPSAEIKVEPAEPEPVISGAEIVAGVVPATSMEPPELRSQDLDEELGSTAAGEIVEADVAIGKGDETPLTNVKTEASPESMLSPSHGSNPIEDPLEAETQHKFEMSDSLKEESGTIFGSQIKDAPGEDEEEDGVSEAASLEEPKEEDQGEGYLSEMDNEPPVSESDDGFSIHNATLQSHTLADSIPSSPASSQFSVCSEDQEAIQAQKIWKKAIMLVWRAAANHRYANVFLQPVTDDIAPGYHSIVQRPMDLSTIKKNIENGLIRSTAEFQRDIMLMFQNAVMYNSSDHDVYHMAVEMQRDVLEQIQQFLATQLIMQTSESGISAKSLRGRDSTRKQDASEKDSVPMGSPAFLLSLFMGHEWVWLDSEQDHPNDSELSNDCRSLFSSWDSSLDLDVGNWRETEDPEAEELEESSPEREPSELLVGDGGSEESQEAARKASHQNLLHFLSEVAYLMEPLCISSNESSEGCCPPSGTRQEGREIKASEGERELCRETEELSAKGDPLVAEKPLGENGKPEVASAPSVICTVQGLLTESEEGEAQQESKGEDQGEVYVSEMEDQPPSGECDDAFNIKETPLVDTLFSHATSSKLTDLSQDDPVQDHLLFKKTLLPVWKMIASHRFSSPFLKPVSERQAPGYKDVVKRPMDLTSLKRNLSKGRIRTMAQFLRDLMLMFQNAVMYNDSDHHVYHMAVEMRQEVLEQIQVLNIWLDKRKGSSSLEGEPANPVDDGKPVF
UniProt O94766: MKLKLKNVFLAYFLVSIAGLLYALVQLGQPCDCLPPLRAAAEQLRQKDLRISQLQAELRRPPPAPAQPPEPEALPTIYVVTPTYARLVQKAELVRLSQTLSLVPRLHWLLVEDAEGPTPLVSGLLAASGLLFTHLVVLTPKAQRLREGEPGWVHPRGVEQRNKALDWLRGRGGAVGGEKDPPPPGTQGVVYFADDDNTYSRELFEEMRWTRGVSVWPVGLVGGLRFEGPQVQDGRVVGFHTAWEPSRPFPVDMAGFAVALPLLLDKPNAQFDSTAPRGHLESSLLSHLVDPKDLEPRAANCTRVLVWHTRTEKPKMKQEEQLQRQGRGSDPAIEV
UniProt P15291: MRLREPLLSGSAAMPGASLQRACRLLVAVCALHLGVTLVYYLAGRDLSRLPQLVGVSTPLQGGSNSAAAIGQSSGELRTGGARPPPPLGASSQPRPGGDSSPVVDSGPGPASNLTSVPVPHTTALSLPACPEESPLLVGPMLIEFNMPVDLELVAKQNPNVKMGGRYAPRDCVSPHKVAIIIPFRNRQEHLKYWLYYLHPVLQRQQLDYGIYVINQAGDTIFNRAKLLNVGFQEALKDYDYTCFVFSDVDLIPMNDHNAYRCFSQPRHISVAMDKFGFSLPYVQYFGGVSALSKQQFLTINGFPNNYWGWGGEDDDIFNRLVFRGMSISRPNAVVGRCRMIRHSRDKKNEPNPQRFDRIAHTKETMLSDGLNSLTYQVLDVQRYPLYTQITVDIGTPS
UniProt Q9UQB8: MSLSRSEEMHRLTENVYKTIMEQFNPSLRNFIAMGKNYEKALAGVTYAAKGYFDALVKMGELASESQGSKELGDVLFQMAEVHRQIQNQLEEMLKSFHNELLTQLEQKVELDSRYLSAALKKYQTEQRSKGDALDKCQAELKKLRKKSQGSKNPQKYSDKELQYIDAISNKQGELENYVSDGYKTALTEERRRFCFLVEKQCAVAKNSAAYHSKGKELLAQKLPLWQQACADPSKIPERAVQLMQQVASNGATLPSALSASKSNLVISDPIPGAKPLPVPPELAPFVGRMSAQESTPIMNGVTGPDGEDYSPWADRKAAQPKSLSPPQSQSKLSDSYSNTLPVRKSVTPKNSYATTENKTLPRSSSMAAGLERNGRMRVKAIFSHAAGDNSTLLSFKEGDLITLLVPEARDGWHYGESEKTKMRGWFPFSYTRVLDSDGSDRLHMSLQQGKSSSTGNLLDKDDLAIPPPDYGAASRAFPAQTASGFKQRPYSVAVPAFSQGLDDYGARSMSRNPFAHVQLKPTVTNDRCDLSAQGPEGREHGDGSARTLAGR
UniProt O95861: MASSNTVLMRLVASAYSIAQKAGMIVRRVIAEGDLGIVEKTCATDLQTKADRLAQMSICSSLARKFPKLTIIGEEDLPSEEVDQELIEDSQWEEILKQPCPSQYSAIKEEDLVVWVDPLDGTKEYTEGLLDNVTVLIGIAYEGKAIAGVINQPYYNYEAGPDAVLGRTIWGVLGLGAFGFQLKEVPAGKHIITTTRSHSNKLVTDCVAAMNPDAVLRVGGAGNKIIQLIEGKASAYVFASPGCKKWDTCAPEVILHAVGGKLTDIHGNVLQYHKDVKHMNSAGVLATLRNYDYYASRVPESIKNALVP
UniProt Q93088: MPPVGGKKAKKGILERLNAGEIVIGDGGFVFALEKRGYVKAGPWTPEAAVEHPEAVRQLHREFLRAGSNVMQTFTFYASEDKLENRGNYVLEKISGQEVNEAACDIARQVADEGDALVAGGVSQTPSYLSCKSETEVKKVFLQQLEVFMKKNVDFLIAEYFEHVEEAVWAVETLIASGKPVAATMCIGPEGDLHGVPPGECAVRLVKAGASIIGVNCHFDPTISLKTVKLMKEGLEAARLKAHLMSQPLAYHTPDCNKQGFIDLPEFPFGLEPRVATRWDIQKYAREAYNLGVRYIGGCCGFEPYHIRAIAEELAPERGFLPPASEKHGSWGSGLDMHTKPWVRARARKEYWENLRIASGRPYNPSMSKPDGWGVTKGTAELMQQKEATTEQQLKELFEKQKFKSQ
UniProt Q96GX2: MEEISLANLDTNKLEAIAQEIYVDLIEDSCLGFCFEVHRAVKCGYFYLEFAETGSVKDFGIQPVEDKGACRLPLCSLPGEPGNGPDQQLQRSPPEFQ
UniProt O75531: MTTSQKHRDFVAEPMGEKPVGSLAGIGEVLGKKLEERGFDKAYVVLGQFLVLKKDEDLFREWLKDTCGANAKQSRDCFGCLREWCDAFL
UniProt O60909: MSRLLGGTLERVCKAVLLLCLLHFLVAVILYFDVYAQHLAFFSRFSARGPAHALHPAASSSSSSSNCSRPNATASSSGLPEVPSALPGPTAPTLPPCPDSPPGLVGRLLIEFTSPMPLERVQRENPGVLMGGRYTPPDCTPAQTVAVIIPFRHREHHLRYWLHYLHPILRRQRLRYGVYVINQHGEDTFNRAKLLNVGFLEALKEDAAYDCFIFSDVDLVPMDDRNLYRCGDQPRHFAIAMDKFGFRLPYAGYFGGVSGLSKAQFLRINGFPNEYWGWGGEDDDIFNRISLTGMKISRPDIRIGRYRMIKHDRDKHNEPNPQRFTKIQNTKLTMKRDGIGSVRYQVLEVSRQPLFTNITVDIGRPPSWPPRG

Experiments:
Assay in all cases: log2 fold change, soluble protein after heating vs DMSO (PISA); higher = thermal stabilisation; K562 cells, 10 uM, 30 min; active = over 0.2 and 3.5 SD of the protein, either way, in both replicates (recomputed)
[1] = compound: CC1=C(C=C(C=C1)NC(=O)C2=CC(=CC=C2)C(C)(C)C#N)NC3=CC4=C(C=C3)N=CN(C4=O)C
Method in brief: (§1)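 K562 cells at 2×10^6 cells/mL were given 10 μM compound for 30 min. Aliquots then went through 3 min of heating across 48°C-58°C, were pooled, and were extracted in PBS with 0.5% NP-40 at 4°C, and the supernatant after 21,000xg for 90 min was quantified by TMTpro 16plex LC-MS/MS with channel sums equalised. Thermal stability relative to control samples, from duplicates, is given as log2 fold change.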

[2] = compound: CC1=C(C=C(C=C1)NC(=O)C2=CC(=CC=C2)N(C)C)NC(=O)C3=CC=C(C=C3)O
Method in brief: as §1

[3] = compound: CC1=CC=C(C=C1)SC2=C3C=C(SC3=CN=C2)C(=O)N
Method in brief: as §1

[4] = compound: CC1=NC(=CC=C1)C2=C(N=C(N2)C(C)(C)C)C3=CC4=NC=CN=C4C=C3
Method in brief: as §1

[5] = compound: CCCCN(Cc1ccc(C(=O)NO)cc1)C(=O)Nc1ccccc1 [Nexturastat A]
Method in brief: as §1

[6] = compound: CCCS(=O)(=O)Nc1ccc(F)c(C(=O)c2c[nH]c3ncc(-c4ccc(Cl)cc4)cc23)c1F [vemurafenib]
Method in brief: as §1

[7] = compound: CCCS(=O)(=O)Nc1ccc(F)c(C(=O)c2c[nH]c3ncc(Cl)cc23)c1F
Method in brief: as §1

[8] = compound: CCCc1cc(C)[nH]c(=O)c1CNC(=O)c1cc(-c2ccnc(N3CCN(C)CC3)c2)cc2c1cnn2C(C)C
Method in brief: as §1

[9] = compound: CCN(CC)Cc1ccc2cc(COC(=O)Nc3ccc(C(=O)NO)cc3)ccc2c1 [givinostat]
Method in brief: as §1

[10] = compound: CCN(CCCOc1ccc2c(Nc3cc(CC(=O)Nc4cccc(F)c4)[nH]n3)ncnc2c1)CCOP(=O)(O)O [barasertib]
Method in brief: as §1

Measured: log2 fold change

BCKDHB (UniProt P21953)
inactive: [1] 0.118 | [2] -0.023 | [3] 0.03 | [4] 0.016 | [5] 0.086 | [6] 0.041 | [7] 0.034 | [8] -0.002 | [9] -0.085 | [10] 0.055

BORCS5 (UniProt Q969J3)
inactive: [1] 0.071 | [2] 0.047 | [3] -0.013 | [4] 0.032 | [5] 0.11 | [6] 0.137 | [7] -0.092 | [8] 0 | [9] -0.017 | [10] 0.016

BLOC1S2 (UniProt Q6QNY1)
inactive: [1] -0.101 | [2] 0.02 | [3] 0.093 | [4] 0.108 | [5] 0.02 | [6] -0.022 | [7] 0.075 | [8] -0.218 | [9] -0.145 | [10] 0.003

BCAP29 isoform 2 (UniProt Q9UHQ4)
inactive: [1] -0.078 | [2] 0.006 | [3] 0.015 | [4] 0.01 | [5] -0.032 | [6] -0.033 | [7] -0.036 | [8] -0.116 | [9] -0.075 | [10] 0.025

BLZF1 (UniProt Q9H2G9)
inactive: [1] 0.048

BCAT2 (UniProt O15382)
inactive: [1] 0 | [2] 0.013 | [3] 0.104 | [4] 0.027 | [5] 0.002 | [6] 0.025 | [7] -0.033 | [8] -0.043 | [9] -0.095 | [10] 0.007

BACH1 (UniProt O14867)
inactive: [1] 0.011 | [2] -0.008 | [3] 0.076 | [4] -0.042 | [5] -0.002 | [6] -0.013 | [7] -0.02 | [8] 0.039 | [9] -0.001 | [10] 0.03

BOP1 (UniProt Q14137)
inactive: [1] -0.06 | [2] 0.007 | [3] 0.015 | [4] 0.023 | [5] 0.162 | [6] 0.047 | [7] -0.006 | [8] 0.055 | [9] 0.09 | [10] -0.054

BCAS2 (UniProt O75934)
inactive: [1] -0.02 | [2] -0.073 | [3] -0.012 | [4] -0.024 | [5] 0.08 | [6] 0.033 | [7] -0.015 | [8] -0.02 | [9] 0.016 | [10] 0.043

B3GNT8 (UniProt Q7Z7M8)
inactive: [1] 0.232

Quoted from the results shown (three entries):
BLOC1S2 (UniProt Q6QNY1)
inactive: [1] -0.101 | [2] 0.02 | [3] 0.093 | [4] 0.108 | [5] 0.02 | [6] -0.022 | [7] 0.075 | [8] -0.218 | [9] -0.145 | [10] 0.003

BCAP29 isoform 2 (UniProt Q9UHQ4)
inactive: [1] -0.078 | [2] 0.006 | [3] 0.015 | [4] 0.01 | [5] -0.032 | [6] -0.033 | [7] -0.036 | [8] -0.116 | [9] -0.075 | [10] 0.025

BLZF1 (UniProt Q9H2G9)
inactive: [1] 0.048

Remaining list, next part

BCAT1 (UniProt P54687)
inactive: [1] -0.021 | [2] 0.026 | [3] 0.045 | [4] 0.003 | [5] -0.047 | [6] -0.006 | [7] -0.011 | [8] -0.038 | [9] -0.092 | [10] -0.011

BLVRA (UniProt P53004)
inactive: [1] -0.008 | [2] 0.012 | [3] -0.005 | [4] -0.003 | [5] -0.042 | [6] -0.003 | [7] 0.016 | [8] -0.01 | [9] -0.014 | [10] 0

BCL2L1 (UniProt Q07817)
inactive: [1] 0.135 | [2] 0.023 | [3] 0.007 | [4] -0.023 | [5] -0.004 | [6] 0.061 | [7] 0.046 | [8] -0.064 | [9] 0.032 | [10] -0.01

BRD8 (UniProt Q9H0E9)
inactive: [1] 0.002 | [2] 0.026 | [3] -0.01 | [4] 0.017 | [5] -0.098 | [6] 0.027 | [7] 0.01 | [8] 0.002 | [9] -0.153 | [10] -0.026

BMS1 (UniProt Q14692)
inactive: [1] 0 | [2] 0.001 | [3] -0.07 | [4] -0.119 | [5] 0.19 | [6] -0.079 | [7] -0.082 | [8] 0.148 | [9] 0.041 | [10] -0.116

B3GAT3 (UniProt O94766)
inactive: [1] -0.098 | [2] -0.055 | [3] 0.034 | [4] -0.028 | [5] -0.016 | [6] -0.027 | [7] 0.019 | [8] -0.021 | [9] 0.037 | [10] 0.088

ATXN2L (UniProt Q8WWM7)
inactive: [1] 0.033 | [2] 0.017 | [3] 0.006 | [4] 0.026 | [5] 0.066 | [6] 0.006 | [7] 0.033 | [8] -0.002 | [9] 0.016 | [10] 0.005

BIRC2 (UniProt Q13490)
inactive: [1] -0.02 | [2] 0.007 | [3] 0.004 | [4] 0.013 | [5] -0.106 | [6] 0.002 | [7] -0.054 | [8] -0.082 | [9] 0.053 | [10] 0.019

BOLA2 (UniProt Q9H3K6)
inactive: [1] 0.021 | [2] -0.062 | [3] 0.066 | [4] 0.012 | [5] -0.072 | [6] 0.03 | [7] 0.073 | [8] -0.039 | [9] 0.014 | [10] 0.033

B4GALT1 (UniProt P15291)
inactive: [1] -0.009 | [2] -0.027 | [3] 0.002 | [4] -0.05 | [5] -0.022 | [6] 0.035 | [7] 0.012 | [8] -0.044 | [9] -0.113 | [10] -0.01

BABAM2 (UniProt Q9NXR7)
inactive: [1] 0.016 | [2] -0.098 | [3] -0.057 | [4] -0.013 | [5] -0.012 | [6] -0.046 | [7] 0.006 | [8] -0.037 | [9] -0.013 | [10] -0.015

BCCIP (UniProt Q9P287)
inactive: [1] -0.023 | [2] -0.015 | [3] -0.009 | [4] -0.01 | [5] -0.002 | [6] 0.02 | [7] 0.036 | [8] -0.004 | [9] 0.035 | [10] 0.033

BCL2L13 (UniProt Q9BXK5)
inactive: [1] 0.033 | [2] 0.029 | [3] 0.004 | [4] 0.039 | [5] -0.031 | [6] 0.003 | [7] 0.013 | [8] -0.014 | [9] 0.03 | [10] -0.019

ATR (UniProt Q13535)
inactive: [1] -0.012 | [2] -0.022 | [3] 0.013 | [4] -0.126 | [5] 0.005 | [6] 0.035 | [7] -0.001 | [8] 0.015 | [9] 0.039 | [10] 0.037

BAG3 (UniProt O95817)
inactive: [1] -0.012 | [2] -0.021 | [3] -0.055 | [4] 0.012 | [5] 0.037 | [6] -0.016 | [7] -0.049 | [8] -0.029 | [9] -0.009 | [10] -0.016

BAIAP2 isoform 4 (UniProt Q9UQB8)
inactive: [1] 0.034

BPNT1 (UniProt O95861)
inactive: [1] 0.014 | [2] -0.022 | [3] 0.004 | [4] 0.013 | [5] -0.029 | [6] -0.007 | [7] 0.025 | [8] -0.039 | [9] -0.07 | [10] -0.003

BHMT (UniProt Q93088)
inactive: [1] -0.034

BPIFB1 (UniProt Q8TDL5)
inactive: [1] 0.054

ATXN7L3B (UniProt Q96GX2)
inactive: [1] -0.051 | [2] 0.039 | [3] -0.016 | [4] -0.051 | [5] 0.101 | [6] -0.048 | [7] -0.024 | [8] -0.02 | [9] 0.002 | [10] 0.029

AVL9 (UniProt Q8NBF6)
inactive: [1] 0.018 | [2] -0.007 | [3] 0.052 | [4] 0.034 | [5] -0.024 | [6] 0.041 | [7] 0.086 | [8] -0.071 | [9] 0.034 | [10] 0.007

BANF1 (UniProt O75531)
inactive: [1] -0.011 | [2] -0.092 | [3] 0.031 | [4] 0.026 | [5] -0.057 | [6] 0.073 | [7] -0.093 | [8] -0.06 | [9] -0.034 | [10] 0.055

B4GALT2 isoform 3 (UniProt O60909)
inactive: [1] -0.002

BCKDK (UniProt O14874)
inactive: [1] -0.031 | [2] 0.004 | [3] -0.033 | [4] 0.008 | [5] -0.018 | [6] -0.024 | [7] -0.008 | [8] -0.066 | [9] -0.011 | [10] -0.013

AUP1 (UniProt Q9Y679)
inactive: [1] 0.054 | [2] 0.021 | [3] 0.009 | [4] -0.005 | [5] -0.048 | [6] 0.121 | [7] 0.058 | [8] -0.056 | [9] 0.028 | [10] 0.06
